# Measurements: patent publication US10512700B2, “Radiohalide-labeled targeted diagnostics and therapeutics” (Memorial Sloan Kettering Cancer Center, priority 2014, dated 2019)
# At least one structure is not confirmed: it was looked up by name or label, or the drawing left a doubt.
# System: U87 MG tumor bearing mice
# Assay: Biodistribution
# Format: in vivo, mouse
# Settings: 2 h post intravenous injection
# Protocol: Biodistribution experiments were conducted on female nude mice (8-10 weeks old and 20-25 g in weight, n=21) bearing U87 MG subcutaneous xenografts. The radiolabeled preparation (20-30 μCi of compound C-2d (^131I) in 200 μL of a solution 90% PBS 10% PEG300) was administrated via the lateral tail vein. To determine a suitable specific activity (to achieve a sufficiently high tumor to organ ratio), several specific activities were tested (5 mCi/μmol, 50 mCi/μmol, 250 mCi/μmol) in mice bearing U87 MG tumors. The compound was allowed to circulate for 2 h post injection at which time mice were sacrificed and organs were harvested (n=3). The radioactive content in tissue of interest (blood, tumor, muscle, bone, liver, spleen, kidney, heart, lung, pancreas, brain, skin, small intestine, large intestine, stomach, tail, thyroid and feces) was measured on a Wizard 2470 Automatic Gamma Counter, and the tissue-associated activity was calculated as the mean % ID/g using the following formula: [(activity in the target organ/grams of tissue)/injected dose]×100%.
# After determining the optimal specific activity (of the three tested), a suitable time window for imaging was determined by testing the compound distribution in nude mice bearing U87 MG tumors at different time points. The compound was allowed to circulate for various times (1, 2, and 6 h), after which the mice were sacrificed (n=3).
smiles,measurement,value
O=C(c1ccc([131I])cc1)N1CCN(C(=O)c2cc(Cc3n[nH]c(=O)c4ccccc34)ccc2F)CC1 [C-2d (^131I)],tumor:brain ratio,24:1 to 25:1
same,tumor:muscle ratio,4:1 to 5:1
